Measurements reported in PubChem BioAssay AID504804 (Drosophila RNAi Screening Center, 2011)

- Screen: 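Knock-downs shielding fly cells from apoptosis caused by DNA damage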 (primary screen)
- Cell system: Drosophila Kc cells
- Reagent: long dsRNA against Drosophila genes, 0.5 µg dsRNA per well
- Duration: 96 h (48 h knock-down, then 48 h drug)
- Challenge: doxorubicin 5 µg/ml for 48 h, added 48 h after dsRNA
- Read-out: 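Luminescent ATP counts per replicate, not normalised, reflecting viable cells after 48 h dsRNA knock-down followed by 48 h of 5 µg/ml doxorubicin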
- Reading the numbers: raw ATP luminescence: higher = more viable cells, protection from doxorubicin
- Hit rule: 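z-score of 2 or more over plate mean in both duplicates, retained only when retests and separate dsRNAs confirm the protection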
The deposit covers about 19,000 reagents; shown is a random part of those that have a named target and a result. In the full data, 47 (0.25%) were called active. 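Signals are raw, not normalised; exact z-scores behind calls not deposited; actives needed confirmation, so some wells reaching 2 SD are inactive.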 A number with no mark means an inactive call.

What did the screen give for meru [DRSC09400]?
raw ATP luminescence, replicate 1: 77430; raw ATP luminescence, replicate 2: 83120

For meru [DRSC09899], what was measured?
raw ATP luminescence, replicate 1: 71223; raw ATP luminescence, replicate 2: 53807

With meru [DRSC10215], what does the deposit list?
raw ATP luminescence, replicate 1: 89347; raw ATP luminescence, replicate 2: 64693

For CG11474 [DRSC04112], what does the deposit list?
raw ATP luminescence, replicate 1: 87113; raw ATP luminescence, replicate 2: 68757

What did the screen give for Mrp5 [DRSC15597]?
raw ATP luminescence, replicate 1: 53360; raw ATP luminescence, replicate 2: 51270

What is on record for Mrp5 [DRSC15598]?
raw ATP luminescence, replicate 1: 84640; raw ATP luminescence, replicate 2: 69290

For Mtap [DRSC06890], how do the results read?
raw ATP luminescence, replicate 1: 63767; raw ATP luminescence, replicate 2: 78687

How did the screen score CG17744 [DRSC10286]?
raw ATP luminescence, replicate 1: 73060; raw ATP luminescence, replicate 2: 81080

What did the screen give for tra2 [DRSC07708]?
raw ATP luminescence, replicate 1: 60807; raw ATP luminescence, replicate 2: 53410

For bi [DRSC18742], what does the deposit list?
raw ATP luminescence, replicate 1: 31230; raw ATP luminescence, replicate 2: 45910

Which result is listed for CG33306 [DRSC01899]?
raw ATP luminescence, replicate 1: 76890; raw ATP luminescence, replicate 2: 56603

For Hn [DRSC11184], what does the deposit list?
raw ATP luminescence, replicate 1: 40197; raw ATP luminescence, replicate 2: 34777

For tsl [DRSC17090], what does the deposit list?
raw ATP luminescence, replicate 1: 47910; raw ATP luminescence, replicate 2: 57240

How did the screen score fw [DRSC20334]?
raw ATP luminescence, replicate 1: 3.55e5; raw ATP luminescence, replicate 2: 3.41e5

For Trs23 [DRSC03190], what does the deposit list?
raw ATP luminescence, replicate 1: 58167; raw ATP luminescence, replicate 2: 79407

What is on record for tamo [DRSC04446]?
raw ATP luminescence, replicate 1: 68813; raw ATP luminescence, replicate 2: 57690

What is on record for CG7465 [DRSC08592]?
raw ATP luminescence, replicate 1: 73040; raw ATP luminescence, replicate 2: 72070

What is on record for mthl15 [DRSC01120]?
raw ATP luminescence, replicate 1: 3.19e5; raw ATP luminescence, replicate 2: 3.03e5

With CG7768 [DRSC10914], what does the deposit list?
raw ATP luminescence, replicate 1: 25237; raw ATP luminescence, replicate 2: 21137

For CG15734 [DRSC19701], what was measured?
raw ATP luminescence, replicate 1: 3.13e5; raw ATP luminescence, replicate 2: 3.24e5

With CG5273 [DRSC18612], what does the deposit list?
raw ATP luminescence, replicate 1: 40820; raw ATP luminescence, replicate 2: 68880

With Atf-2 [DRSC04130], how do the results read?
raw ATP luminescence, replicate 1: 69523; raw ATP luminescence, replicate 2: 44000

Which result is listed for Atf-2 [DRSC04413]?
raw ATP luminescence, replicate 1: 1.64e5; raw ATP luminescence, replicate 2: 1.50e5

With CG30287 [DRSC03875], what does the deposit list?
raw ATP luminescence, replicate 1: 59213; raw ATP luminescence, replicate 2: 66917

With fry [DRSC08993], what was measured?
raw ATP luminescence, replicate 1: 1.83e5; raw ATP luminescence, replicate 2: 1.87e5

With fry [DRSC10172], what was measured?
raw ATP luminescence, replicate 1: 85783; raw ATP luminescence, replicate 2: 1.47e5

With fry [DRSC10709], what does the deposit list?
raw ATP luminescence, replicate 1: 76273; raw ATP luminescence, replicate 2: 1.33e5

For fry [DRSC10712], what was measured?
raw ATP luminescence, replicate 1: 27017; raw ATP luminescence, replicate 2: 26943

3 of these entries, reformatted:
target gene,amplicon,"raw ATP luminescence, replicate 1","raw ATP luminescence, replicate 2"
CG17744,DRSC10286,73060,81080
tra2,DRSC07708,60807,53410
bi,DRSC18742,31230,45910
